# PubChem BioAssay AID1259265 – Sanger Institute | 2017
# Screen: 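Confirm primary screen knock-down and drug pairs in SW620 colorectal cancer cells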 (follow-up of hits)
# System: SW620 human colorectal cancer cells
# Reagents: single siRNA against human genes
# Challenge: anchor drug given a day after transfection: BYL719 at 1 µM, cetuximab at 5 µg/ml, trametinib at 10 nM; DMSO alone as the comparison arm
# Measured: 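Viability of each well as a fraction of the non-targeting pool 2 control, mean of replicates; synergy score weighing the combined effect against siRNA and drug alone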
# Direction: synergy score with trametinib: higher = stronger synergy (synthetic lethal) with trametinib; synergy score with BYL719: higher = stronger synergy (synthetic lethal) with BYL719; synergy score with cetuximab: higher = stronger synergy (synthetic lethal) with cetuximab
# Hit rule: 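Active if the synergy score is over 0.10 for any of the three anchor drugs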
# Shown is an unselected part of 160 reagents tested. 31 of them (19%) were called active. 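Calls refer to single siRNAs; agreement across several siRNAs per gene and other cell lines is not shown.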 The numbers tell different reagents against one gene apart. Further read-outs or replicates are left out here. No sequences are given here. The record does not give: the amount of reagent, the time to read-out.
Target gene,reagent,synergy score with trametinib,synergy score with BYL719,synergy score with cetuximab,Outcome
ACVR1,1,-0.0551,-0.288,-0.122,inactive
ACVR1,2,-0.00259,-0.211,-0.122,inactive
ACVR1,3,-0.00433,-0.19,-0.122,inactive
ACVR1,4,-0.0223,-0.263,0.027,inactive
COASY,1,0.0358,0.0401,-0.0525,inactive
COASY,2,-0.121,0.0688,-0.0768,inactive
COASY,3,-0.00743,-0.0475,0.111,
COASY,4,0.00242,0.0688,0.0302,inactive
PAK1,1,0.0659,-0.139,-0.0976,inactive
PAK1,2,-0.0473,-0.0691,0.0189,inactive
PAK1,3,0.149,0.0728,-0.174,active
PAK1,4,0.00846,-0.236,-0.0534,inactive
PIK3CA,1,0.0371,-0.0983,0.0103,inactive
PIK3CA,2,-0.114,-0.113,-0.0643,inactive
PIK3CA,3,0.0848,0.0994,-0.0889,inactive
PIK3CA,4,-0.0157,-0.132,-0.0512,inactive
GUCY2D,1,0.0234,-0.155,-0.122,inactive
GUCY2D,2,0.0576,-0.0728,-0.0528,inactive
GUCY2D,3,-0.185,-0.22,-0.153,inactive
GUCY2D,4,0.06,-0.288,-0.122,inactive
IKBKB,1,-0.241,-0.0829,-0.1,inactive
IKBKB,2,-0.0251,-0.0791,0.0391,inactive
IKBKB,3,-0.0951,-0.275,-0.122,inactive
IKBKB,4,-0.0593,-0.183,-0.156,inactive
PINK1,1,-0.0461,-0.34,-0.00514,inactive
PINK1,2,0.141,-0.0768,-0.135,active
PINK1,3,0.0927,-0.169,-0.0698,inactive
PINK1,4,0.124,-0.0222,-0.116,active
MAPKAPK2,1,-0.0711,-0.0425,-0.2,inactive
MAPKAPK2,2,-0.245,-0.169,-0.198,inactive
MAPKAPK2,3,-0.216,-0.24,-0.15,inactive
MAPKAPK2,4,-0.186,-0.109,-0.122,inactive
GTF2H1,1,-0.151,-0.109,-0.0675,inactive
GTF2H1,2,-0.177,-0.249,-0.122,inactive
GTF2H1,3,-0.285,-0.306,-0.122,inactive
GTF2H1,4,-0.0332,-0.0148,-0.0815,inactive
GRK5,1,0.0209,-0.0811,-0.122,inactive
GRK5,2,0.0488,-0.0623,0.0649,inactive
GRK5,3,0.134,-0.115,0.0227,active
GRK5,4,-0.00183,-0.243,0.0537,inactive
MAPK4,1,-0.0814,-0.193,-0.177,inactive
MAPK4,2,0.0111,-0.146,-0.062,inactive
MAPK4,3,-0.0765,-0.0149,-0.0409,inactive
MAPK4,4,0.0411,-0.136,-0.114,inactive
PIM1,1,0.0891,-0.115,-0.085,inactive
PIM1,2,0.0511,0.0409,-0.157,inactive
PIM1,3,-0.215,-0.372,-0.143,inactive
PIM1,4,-0.0316,-0.0688,-0.122,inactive
MPP3,1,0.0323,-0.306,-0.122,inactive
MPP3,2,-0.0383,-0.105,-0.00488,inactive
MPP3,3,0.326,0.0681,-0.149,active
MPP3,4,0.0101,-0.146,-0.0347,inactive

Sorted by “synergy score with BYL719” (low to high): 4 of the entries above.
Target gene,reagent,synergy score with trametinib,synergy score with BYL719,synergy score with cetuximab,Outcome
PINK1,3,0.0927,-0.169,-0.0698,inactive
MAPKAPK2,2,-0.245,-0.169,-0.198,inactive
MAPKAPK2,1,-0.0711,-0.0425,-0.2,inactive
PINK1,4,0.124,-0.0222,-0.116,active
